Assay results published in patent publication EP4497755A1 (Asociación Centro de Investigación Cooperativa en …, dated 2025).
No constants are given. Whether binding was seen depends on the method and setting. In cells and extracts the contact can be indirect. Some entries that bind do so weakly or less than the wild type. Tags and fused reporters may be left off the sequences shown.

Sequences of proteins named here, by UniProt entry; tags and fusion partners are left off. A change or cut given only in a name is not applied to a line headed by its entry. A line that says so, or that is headed by a name, gives the form on record, which may keep a tag or linker. Residues count along the entry.
LRP6N-IgG (Fc-tagged LRP6 extracellular domain) (O75581, residues 20-1370): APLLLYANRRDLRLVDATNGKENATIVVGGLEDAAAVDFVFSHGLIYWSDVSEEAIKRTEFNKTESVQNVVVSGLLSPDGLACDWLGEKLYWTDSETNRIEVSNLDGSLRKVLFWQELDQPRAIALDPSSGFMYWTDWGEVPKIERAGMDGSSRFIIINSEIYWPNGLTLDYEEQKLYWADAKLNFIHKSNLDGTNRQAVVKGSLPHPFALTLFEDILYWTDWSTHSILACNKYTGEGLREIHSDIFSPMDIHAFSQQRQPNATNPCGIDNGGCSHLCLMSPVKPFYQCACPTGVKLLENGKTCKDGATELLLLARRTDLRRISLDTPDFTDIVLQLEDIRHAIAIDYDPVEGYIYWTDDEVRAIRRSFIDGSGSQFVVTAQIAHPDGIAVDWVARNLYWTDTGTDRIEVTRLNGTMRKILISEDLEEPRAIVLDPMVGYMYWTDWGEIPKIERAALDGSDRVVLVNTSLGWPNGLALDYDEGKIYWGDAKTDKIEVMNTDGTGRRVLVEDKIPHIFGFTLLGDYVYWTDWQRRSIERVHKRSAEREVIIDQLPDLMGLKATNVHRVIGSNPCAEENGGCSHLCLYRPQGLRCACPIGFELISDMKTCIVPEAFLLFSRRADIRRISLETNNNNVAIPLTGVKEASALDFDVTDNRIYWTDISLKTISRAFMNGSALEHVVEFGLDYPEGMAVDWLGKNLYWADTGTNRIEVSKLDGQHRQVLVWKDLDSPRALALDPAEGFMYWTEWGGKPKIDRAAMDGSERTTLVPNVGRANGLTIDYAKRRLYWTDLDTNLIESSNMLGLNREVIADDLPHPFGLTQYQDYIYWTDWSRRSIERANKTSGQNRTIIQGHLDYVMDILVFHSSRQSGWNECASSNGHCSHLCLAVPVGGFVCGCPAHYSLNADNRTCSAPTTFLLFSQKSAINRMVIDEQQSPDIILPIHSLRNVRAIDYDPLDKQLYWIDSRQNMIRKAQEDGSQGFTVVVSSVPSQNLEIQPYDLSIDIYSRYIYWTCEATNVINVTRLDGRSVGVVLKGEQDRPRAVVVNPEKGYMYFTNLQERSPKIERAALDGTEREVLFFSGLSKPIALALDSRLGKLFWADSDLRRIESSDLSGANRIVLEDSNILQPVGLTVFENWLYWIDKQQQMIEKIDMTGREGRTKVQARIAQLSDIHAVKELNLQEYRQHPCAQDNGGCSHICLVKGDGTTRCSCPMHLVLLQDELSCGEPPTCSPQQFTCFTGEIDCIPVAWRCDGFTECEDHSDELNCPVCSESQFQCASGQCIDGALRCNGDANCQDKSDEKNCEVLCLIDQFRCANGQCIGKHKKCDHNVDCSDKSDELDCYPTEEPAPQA
VSV-G-tagged full-length LRP6 (O75581, form named): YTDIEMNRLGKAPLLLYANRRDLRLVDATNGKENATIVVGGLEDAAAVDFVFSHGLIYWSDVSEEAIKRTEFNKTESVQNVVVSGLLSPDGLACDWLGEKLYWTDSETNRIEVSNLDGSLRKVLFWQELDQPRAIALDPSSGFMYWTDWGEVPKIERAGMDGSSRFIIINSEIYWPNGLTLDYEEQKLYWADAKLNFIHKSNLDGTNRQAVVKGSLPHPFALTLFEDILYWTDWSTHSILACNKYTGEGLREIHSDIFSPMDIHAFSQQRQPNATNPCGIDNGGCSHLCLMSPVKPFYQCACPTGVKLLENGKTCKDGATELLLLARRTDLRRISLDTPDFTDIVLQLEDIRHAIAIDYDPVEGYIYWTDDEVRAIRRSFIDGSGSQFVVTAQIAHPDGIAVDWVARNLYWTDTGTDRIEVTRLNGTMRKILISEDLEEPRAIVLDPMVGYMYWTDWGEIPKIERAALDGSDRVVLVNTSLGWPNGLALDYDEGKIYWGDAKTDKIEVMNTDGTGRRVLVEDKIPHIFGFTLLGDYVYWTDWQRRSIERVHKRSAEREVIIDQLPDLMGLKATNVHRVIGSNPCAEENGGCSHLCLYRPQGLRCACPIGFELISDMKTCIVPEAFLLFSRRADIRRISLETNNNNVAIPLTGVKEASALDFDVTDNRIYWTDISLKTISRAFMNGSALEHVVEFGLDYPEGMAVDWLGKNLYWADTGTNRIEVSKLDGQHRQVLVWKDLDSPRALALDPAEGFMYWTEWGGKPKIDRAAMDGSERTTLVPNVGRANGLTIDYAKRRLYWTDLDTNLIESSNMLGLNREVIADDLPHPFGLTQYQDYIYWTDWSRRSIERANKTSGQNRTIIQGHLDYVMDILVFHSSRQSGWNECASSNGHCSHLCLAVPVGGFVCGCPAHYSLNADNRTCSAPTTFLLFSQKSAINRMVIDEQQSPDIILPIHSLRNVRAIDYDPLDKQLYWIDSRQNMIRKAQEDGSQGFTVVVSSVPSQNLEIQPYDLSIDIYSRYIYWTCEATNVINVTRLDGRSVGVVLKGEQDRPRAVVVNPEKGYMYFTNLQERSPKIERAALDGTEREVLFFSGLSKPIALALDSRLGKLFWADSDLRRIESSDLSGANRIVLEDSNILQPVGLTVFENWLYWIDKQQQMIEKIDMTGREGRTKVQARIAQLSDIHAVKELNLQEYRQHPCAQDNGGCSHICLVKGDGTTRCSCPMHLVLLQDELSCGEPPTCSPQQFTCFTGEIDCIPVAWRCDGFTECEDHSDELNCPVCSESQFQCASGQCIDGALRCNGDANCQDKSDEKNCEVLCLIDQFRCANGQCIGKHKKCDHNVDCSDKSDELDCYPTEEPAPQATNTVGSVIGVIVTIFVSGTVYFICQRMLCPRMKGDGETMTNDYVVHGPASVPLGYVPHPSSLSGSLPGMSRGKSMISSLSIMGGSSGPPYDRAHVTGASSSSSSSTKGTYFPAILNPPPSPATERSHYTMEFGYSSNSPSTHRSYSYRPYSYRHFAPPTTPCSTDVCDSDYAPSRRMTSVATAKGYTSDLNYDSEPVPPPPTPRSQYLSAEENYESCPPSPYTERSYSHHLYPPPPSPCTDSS

B1: PA-tagged human Wnt-11 (ligand)
chain: GVAMPGAEDDVVIKWLALSKTPSALALNQTQHCKQLEGLVSAQVQLCRSNLELMHTVVHAAREVMKACRRAFADMRWNCSSIELAPNYLLDLERGTRESAFVYALSAAAISHAIARACTSGDLPGCSCGPVPGEPPGPGNRWGGCADNLSYGLLMGAKFSDAPMKVKKTGSQANKLMRLHNSEVGRQALRASLEMKCKCHGVSGSCSIRTCWKGLQELQDVAADLKTRYLSATKVVHRPMGTRKHLVPKDLDIRPVKDSELVYLQSSPDFCMKNEKVGSHGTQDRQCNKTSNGSDSCDLMCCGRGYNPYTDRVVERCHCKYHWCCYVTCRRCERTVERYVCK
B2: human Wnt-11 (wild-type, untagged) (ligand, UniProt O96014 25-354, looked up)
chain: IKWLALSKTPSALALNQTQHCKQLEGLVSAQVQLCRSNLELMHTVVHAAREVMKACRRAFADMRWNCSSIELAPNYLLDLERGTRESAFVYALSAAAISHAIARACTSGDLPGCSCGPVPGEPPGPGNRWGGCADNLSYGLLMGAKFSDAPMKVKKTGSQANKLMRLHNSEVGRQALRASLEMKCKCHGVSGSCSIRTCWKGLQELQDVAADLKTRYLSATKVVHRPMGTRKHLVPKDLDIRPVKDSELVYLQSSPDFCMKNEKVGSHGTQDRQCNKTSNGSDSCDLMCCGRGYNPYTDRVVERCHCKYHWCCYVTCRRCERTVERYVCK
B3: Wnt-11 antibody epitope deletion mutant Wnt-11m (Wnt-11 delta 101-108, untagged) (ligand, human, UniProt O96014 25-354, looked up)
chain: IKWLALSKTPSALALNQTQHCKQLEGLVSAQVQLCRSNLELMHTVVHAAREVMKACRRAFADMRWNCSSIELAPNYRESAFVYALSAAAISHAIARACTSGDLPGCSCGPVPGEPPGPGNRWGGCADNLSYGLLMGAKFSDAPMKVKKTGSQANKLMRLHNSEVGRQALRASLEMKCKCHGVSGSCSIRTCWKGLQELQDVAADLKTRYLSATKVVHRPMGTRKHLVPKDLDIRPVKDSELVYLQSSPDFCMKNEKVGSHGTQDRQCNKTSNGSDSCDLMCCGRGYNPYTDRVVERCHCKYHWCCYVTCRRCERTVERYVCK
B4: PA-tagged Wnt-11m (Wnt-11 delta 101-108) (ligand, human)
chain: GVAMPGAEDDVVIKWLALSKTPSALALNQTQHCKQLEGLVSAQVQLCRSNLELMHTVVHAAREVMKACRRAFADMRWNCSSIELAPNYRESAFVYALSAAAISHAIARACTSGDLPGCSCGPVPGEPPGPGNRWGGCADNLSYGLLMGAKFSDAPMKVKKTGSQANKLMRLHNSEVGRQALRASLEMKCKCHGVSGSCSIRTCWKGLQELQDVAADLKTRYLSATKVVHRPMGTRKHLVPKDLDIRPVKDSELVYLQSSPDFCMKNEKVGSHGTQDRQCNKTSNGSDSCDLMCCGRGYNPYTDRVVERCHCKYHWCCYVTCRRCERTVERYVCK

Assays:
[1] = biological target: VSV-G-tagged full-length LRP6 (UniProt O75581); assay: co-immunoprecipitation from HEK 293 cell extracts, full-length VSV-G-tagged LRP6
[2] = biological target: T1, mFZD8-CRD-IgG (mouse FZD8 extracellular cysteine-rich domain fused to Fc) (mouse) (UniProt Q61091); assay: protein A/G pull-down of FZD8-CRD-Fc from PC3 cell extracts, western blot
T1 sequence (looked up): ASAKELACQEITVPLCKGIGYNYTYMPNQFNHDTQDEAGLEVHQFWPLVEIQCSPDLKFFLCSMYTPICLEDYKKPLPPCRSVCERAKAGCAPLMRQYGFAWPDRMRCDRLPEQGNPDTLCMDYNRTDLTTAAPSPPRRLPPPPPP

[3] = biological target: LRP6N-IgG (Fc-tagged LRP6 extracellular domain) (UniProt O75581); assay: protein A/G pull-down of LRP6N-Fc from HEK 293 cell extracts, western blot
[4] = biological target: LRP6N-IgG (Fc-tagged LRP6 extracellular domain) (UniProt O75581); assay: protein A/G pull-down of LRP6N-Fc from PC3 cell extracts, western blot

| Molecule | binding [1] | binding [2] | binding [3] | binding [4] |
| --- | --- | --- | --- | --- |
| PA-tagged human Wnt-11 (from UniProt O96014 25-354) (ligand) | binds |  |  |  |
| B1 |  | binds | binds |  |
| B2 |  |  |  | binds |
| B3 |  |  |  | binds |
| B4 | binds | binds | binds |  |
